Where a name gives a salt, the structure may show the parent alone. Some of the results follow. Plates or batches differ in their baseline, so values are only roughly comparable.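 A clonal Drosophila S2 line expresses Smoothened bearing circularly permuted GFP in its cytoplasmic tail; Hh-driven phosphorylation opens an inhibitory loop, making it fluoresce. Flow cytometry measured per-cell fluorescence, normalized to Hh-stimulated untreated cells. Hits were inhibitor groups with shared pathway targets that consistently shifted fluorescence, not individual compounds.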
System: Drosophila S2 cl14 SmoIP sensor cells
Assay: normalized SmoIP GFP fluorescence (untreated unstimulated = 0%, untreated Hh-stimulated = 100%); higher = more Smo activation sensor fluorescence
Conditions: compound concentration: 15 uM, 24 h
[1] = stimulation: Hh conditioned medium (+Hh)
[2] = stimulation: mock conditioned medium (-Hh)

Row | SMILES | normalized SmoIP GFP fluorescence [1] | normalized SmoIP GFP fluorescence [2]
1 | N[C@@H](CC(=O)N1CCn2c(nnc2C(F)(F)F)C1)Cc1cc(F)c(F)cc1F [Sitagliptin] | 114% | 1.21%
2 | COCC[n+]1c2c(n(Cc3cnccn3)c1C)C(=O)c1ccccc1C2=O | 143% | 11.2%
3 | Nc1nc(CC(=O)Nc2ccc(CCNC[C@H](O)c3ccccc3)cc2)cs1 [mirabegron-ym178] | 122% | 2.24%
4 | Oc1ccc(Nc2nc(-c3ccc(Cl)cc3)cs2)cc1 | 52.1% | 44.8%
5 | CCC(C)(Oc1ccc(C2(c3ccc(OC(C)(CC)C(=O)O)cc3)CCCCC2)cc1)C(=O)O (stereo unspecified) [clinofibrate] | 134% | -12.6%
6 | Oc1cc(O)cc(/C=C/c2ccc(O)c(O)c2)c1 [piceatannol] | 153% | 14.4%
7 | Nc1cc(F)ccc1NC(=O)/C=C/c1cnn(C/C=C/c2ccccc2)c1 [rgfp966] | 183% | 48.6%
8 | COC(=O)N[C@H](C(=O)N1CCC[C@H]1c1ncc(-c2ccc(-c3ccc(-c4cnc([C@@H]5CCCN5C(=O)[C@@H](NC(=O)OC)C(C)C)[nH]4)cc3)cc2)[nH]1)C(C)C | 96.5% | 32.9%
9 | Cc1cncc(CN2CCC(=C3c4ccc(Cl)cc4CCc4cccnc43)CC2)c1 [rupatadine-fumarate] | 152% | 37.2%
10 | CNC(CC(=O)O)C(=O)O (stereo not drawn) [nmda-n-methyl-d-aspartic-acid] | 112% | -2.2%
11 | NC(=O)c1ccc(N(C(N)=O)c2c(F)cccc2F)nc1-c1ccc(F)cc1F | 108% | -6.06%
12 | CN1CCN(CCOc2cc(OC3CCOCC3)c3c(Nc4c(Cl)ccc5c4OCO5)ncnc3c2)CC1 | 221% | 69.4%
13 | CCN(CC)CCOC(=O)c1ccc(N)cc1 [procaine-novocaine-hcl] | 115% | -1.12%
14 | O=c1n(CCCN2CCN(c3cccc(Cl)c3)CC2)nc2ccccn12 [trazodone-hydrochloride-desyrel] | 182% | 8.54%
15 | COc1nc(C)cnc1NS(=O)(=O)c1cccnc1-c1ccc(-c2nnco2)cc1 [Zibotentan(ZD4054)] | 121% | -3.17%
16 | CNCCCC12CCC(c3ccccc31)c1ccccc12 [Maprotiline-hydrochloride] | 178% | 17.8%
17 | OCCn1cc(-c2cnc3nnn(Cc4ccc5ncccc5c4)c3n2)cn1 | 134% | 3.72%
18 | CCC(CC)CC1(C(=O)Nc2ccccc2SC(=O)C(C)C)CCCCC1 [dalcetrapib-jtt-705] | 130% | -0.297%
19 | CCCCCCCN(CC)CCCC(O)c1ccc(NS(C)(=O)=O)cc1 (stereo unspecified) [ibutilide-fumarate] | 182% | 9.08%
20 | CCOC(=O)[C@H](CCc1ccccc1)N[C@H]1CCc2ccccc2N(CC(=O)O)C1=O [Benazepril-hydrochloride] | 110% | -1.56%
21 | CCN(CC)CCOc1ccc(/C(=C(\Cl)c2ccccc2)c2ccccc2)cc1 [Clomifene-citrate-Serophene] | 163% | 33.7%
22 | CCc1nc(N)nc(N)c1-c1ccc(Cl)cc1 [Pyrimethamine] | 171% | 18.9%
23 | COc1ccccc1Oc1c(NS(=O)(=O)c2ccc(C(C)(C)C)cc2)nc(-c2ncccn2)nc1OCCO [bosentan-hydrate] | 119% | 6.27%
24 | CCCCc1nc(Cl)c(CO)n1Cc1ccc(-c2ccccc2-c2nnn[nH]2)cc1 [losartan-potassium] | 134% | -0.265%
25 | O=C(/C=C/c1ccc(O)c(O)c1)c1ccc(O)cc1O [butein] | 84.2% | 4.93%
26 | CCc1c2c(nc3ccc(O)cc13)-c1cc3c(c(=O)n1C2)COC(=O)[C@]3(O)CC | 58.4% | 10.9%
27 | C[C@]12CCC3=C4CCC(=O)C=C4CC[C@H]3[C@@H]1CC[C@@]2(O)CC#N [Dienogest] | 158% | 3.18%

Ordered by count of non-hydrogen atoms (largest number first): part of the list above.
Row | SMILES | normalized SmoIP GFP fluorescence [1] | normalized SmoIP GFP fluorescence [2]
12 | CN1CCN(CCOc2cc(OC3CCOCC3)c3c(Nc4c(Cl)ccc5c4OCO5)ncnc3c2)CC1 | 221% | 69.4%
1 | N[C@@H](CC(=O)N1CCn2c(nnc2C(F)(F)F)C1)Cc1cc(F)c(F)cc1F [Sitagliptin] | 114% | 1.21%
16 | CNCCCC12CCC(c3ccccc31)c1ccccc12 [Maprotiline-hydrochloride] | 178% | 17.8%

Carrying on.

Row | SMILES | normalized SmoIP GFP fluorescence [1] | normalized SmoIP GFP fluorescence [2]
28 | Cc1ccc(F)c(NC(=O)Nc2ccc(-c3cccc4[nH]nc(N)c34)cc2)c1 | 137% | 54.6%
29 | O=C(C=Cc1ccccc1)NC(NC(=S)Nc1ccc(Cl)cc1)C(Cl)(Cl)Cl (stereo unspecified) | 130% | 1.57%
30 | COc1cc(OC)c(/C=C/S(=O)(=O)Cc2ccc(OC)c(NCC(=O)O)c2)c(OC)c1 | 71.1% | 20.4%
31 | CN1CCN(S(=O)(=O)c2ccc(-c3cnc(N)c(C(=O)Nc4cccnc4)n3)cc2)CC1 | 108% | 10.5%
32 | Cc1c(Nc2ncccc2C(=O)O)cccc1C(F)(F)F [flunixin-meglumin] | 91.8% | -10.8%
33 | C[C@H](N[C@@H](CCc1ccccc1)C(=O)O)C(=O)N1CCC[C@H]1C(=O)O [Enalaprilat] | 130% | 10.2%
34 | CNC(=O)c1ccc(C)c(-n2c(C)cc(OCc3ccc(F)cc3F)c(Br)c2=O)c1 | 171% | 29.4%
35 | Cc1ccc(S(=O)(=O)OCC(=O)Nc2ccc(C(=O)O)c(O)c2)cc1 | 141% | -12.9%
36 | Cc1cccc(Nc2cc(Cl)nc(SCC(=O)O)n2)c1C | 157% | 94.6%
37 | COc1cc(Br)c(Nc2nc(-c3c(C)nc4ncccn34)cs2)c(Br)c1 | 137% | 20.6%
38 | CC(C)n1c(/C=C/[C@@H](O)C[C@@H](O)CC(=O)O)c(-c2ccc(F)cc2)c2ccccc21 [Fluvastatin-Sodium(Lescol] | 113% | 16.1%
39 | CCCCNC(=O)NS(=O)(=O)c1ccc(C)cc1 [tolbutamide] | 123% | -19%
40 | O=C(NS(=O)(=O)c1ccc(Br)s1)c1ccc(Cl)cc1Cl [tasisulam] | 123% | 3.88%
41 | CC(C)(C)C#Cc1cc(N(C(=O)[C@H]2CC[C@H](C)CC2)[C@H]2CC[C@H](O)CC2)c(C(=O)O)s1 | 146% | 48.1%
42 | O=C1CN2Cc3c(ccc(Cl)c3Cl)N=C2N1 [anagrelide-hydrochloride] | 109% | -4.92%
43 | Oc1ccc([C@H]2COc3cc(O)ccc3C2)cc1 [equol] | 125% | -11.7%
44 | C[N+]1(C)[C@@H]2C[C@@H](OC(=O)C(O)(c3cccs3)c3cccs3)C[C@H]1[C@@H]1O[C@@H]12 [Tiotropium-Bromide-hydrate] | 121% | -17.7%
45 | O=C1NC(=O)/C(=C/c2ccc3nccc(-c4ccncc4)c3c2)S1 | 79.7% | 12.4%
46 | O=C(CCCS)NC1CCN(C(=O)COc2ccc(Cl)cc2Cl)CC1 [k-ras-g12c-inhibitor-6] | 121% | 0.361%
47 | O=c1c(-c2ccc(O)cc2)coc2cc(O)cc(O)c12 [Genistein] | 122% | 2.97%
48 | O=C(O)CCCc1ccccc1 [sodium-phenylbutyrate] | 119% | 0.361%
49 | CN1CCC[C@@H]1CCO[C@](C)(c1ccccc1)c1ccc(Cl)cc1 [Clemastine-Fumarate] | 195% | 65.3%
50 | C[C@]1(O)C[C@@H](c2nc(-c3ccc4ccc(-c5ccccc5)nc4c3)c3c(N)nccn32)C1 | 182% | 90.3%
51 | CC(C)n1nc(-c2cc3cc(O)ccc3[nH]2)c2c(N)ncnc21 | 84.2% | -1.56%
52 | COc1ccc(CNCc2cccc3ccccc23)cc1 | 126% | 9.68%
53 | Cc1ccc(NC(=O)c2cccc(N(C)C)c2)cc1NC(=O)c1ccc(O)cc1 | 106% | -11.7%
